Among the data in PubChem BioAssay AID493014 (National Center for Advancing Translational Sciences (NCATS), 2011) are AC50 values, retold here.

What is called AC50 is the concentration at which the activity in the assay is half-maximal.

The nature of the assay: qHTS Assay to Find Inhibitors of Chronic Active B-Cell Receptor Signaling. The settings on record: ABC-DLBCL IkBa-CBG/CBR reporter, luminescence ratio (green luciferase fused to IkBa over red control in TMD8 lymphoma cells), 4 h. In outline: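 Concentration-response series (up to 46 uM) were applied to TMD8 dual-reporter cells for 4 h at 37C with doxycycline. Green/red ratio, after filter-overlap correction, defined %Activity; red signal alone was normalised to basal cells and zero luminescence.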
For orientation: In qHTS, concentration-response curves come from the screen itself.

The mark [1] stands for this setting: measured here: CBR red luminescence, cell number.
Setting [2] is: measured here: IkBa-CBG green luminescence.

SMILES strings stand for the structures. Some of the results follow. These are further read-outs of the screen, such as a control signal, another cell line or another target. No call is given for them. Compounds called inactive in the main read-out are mostly missing here. The note in brackets gives the kind of curve behind each potency; many fits are weak.

As to `Cc1ccc2c(c1)N(CCC(=O)NCc1ccco1)C(=O)CO2`, the concentration at half-maximal activity (AC50) under setting [1] is 15.8 µM [falling, partial curve].

With `COc1ccc(N(CC(=O)N2CCOCC2)S(=O)(=O)c2ccccc2)cc1Cl`, the concentration at half-maximal activity (AC50) under setting [1] is 3.55 µM [rising, partial curve, poor fit].

On to `CCCc1nnc(NC(=O)c2cccs2)s1`, for which, under setting [1], the AC50 is 11.2 µM [falling, partial curve, poor fit].

As for `O=C(NCCc1c[nH]c2ccccc12)N[C@@H](Cc1ccccc1)C(=O)O`, the AC50 under setting [1] is 5.01 µM [rising, full curve].

On to `O=C(/C=C/c1ccccc1)NC(=S)Nc1ccccc1O`, for which the AC50 under setting [1] was 20 µM [falling, single point].

As to `O=C(NCc1ccncc1)C(=O)Nc1nc2ccccc2s1`, under setting [1], the AC50 is 1.12 µM [rising, partial curve, poor fit].

In the case of `CCc1ccc(-c2nc(CN3CCC(C(=O)NCc4ccc(F)cc4)CC3)c(C)o2)cc1`, the AC50 under setting [1] is 31.6 µM [rising, partial curve, poor fit].

Take `O=C(OCC(=O)N1CCN(c2ccccc2)CC1)c1ccc(O)cc1O`: the AC50 under setting [1] was 0.501 µM [falling, full curve].

Regarding `COc1cc(C2C(C(=O)c3cc4ccccc4o3)=C(O)C(=O)N2CCN2CCOCC2)ccc1OCCC(C)C` (centres undefined), under setting [1], the AC50 was 35.5 µM [falling, partial curve, poor fit].

`Nc1nc(-c2ccccc2)cc(-c2ccccc2O)n1`: the AC50 was 0.112 µM [falling, full curve, poor fit] under setting [1] and 20 µM [rising, single point] under setting [2].

For `CC1CCN(C(=O)Cn2c(SCC(=O)Nc3nccs3)nc3ccccc32)CC1`, under setting [1], the AC50 was 14.6 µM [rising, partial curve, poor fit].

On to `N#Cc1ccc(CN2CCN(C(=O)CCNS(=O)(=O)c3ccc(F)c(F)c3)CC2)cc1`, for which the AC50 under setting [1] was 29.1 µM [rising, single point].

On to `O=C(Oc1cccc2cccnc12)c1cccc(N2C(=O)C3C4CCC(C4)C3C2=O)c1` (centres undefined), for which the AC50 is 2.31 µM [rising, partial curve, poor fit] under setting [1] and 23.1 µM [falling, single point] under setting [2].

On to `COc1ccc(NCC(=O)Nc2ccc(Br)cc2F)c(OC)c1`, for which the half-maximal activity concentration (AC50) under setting [1] was 1.26 µM [falling, partial curve, poor fit].

With `O=C(NC1CCCCC1)C(c1cccnc1)N(C(=O)CCl)c1cccc(Cl)c1` (centres undefined), under setting [1], the AC50 was 11.6 µM [falling, partial curve].

On to `COc1ccc(C(=O)C[n+]2ccc3ccccc3c2C)cc1`, for which, under setting [1], the AC50 is 35.5 µM [rising, single point].

With `O=C(c1ccc(F)cc1)N1CCN(c2ccc([N+](=O)[O-])c(N3CCCCC3)c2)CC1`, the AC50 under setting [1] is 35.5 µM [falling, single point].

For `O=C(CCN1C(=O)/C(=C/c2ccccc2Cl)SC1=S)Nc1ccccc1C(=O)O`, under setting [1], the AC50 is 35.5 µM [falling, single point].

As for `CC(C)Cn1c(-c2ccco2)n[nH]c1=S`, the AC50 under setting [1] was 20.6 µM [rising, single point].

Consider `Cc1cc(NC(=O)c2ccccc2)no1`, for which the concentration at half-maximal activity (AC50) under setting [1] was 2 µM [falling, full curve].

On to `CCCC(=O)NC(c1ccccc1OC)c1ccc2cccnc2c1O` (centres undefined), for which the AC50 under setting [1] was 2.24 µM [falling, full curve, poor fit].

For the compound `C[C@H](CO)N1C[C@H](C)[C@@H](CN(C)C(=O)Nc2ccccc2)Oc2ccc(NC(=O)c3ccncc3)cc2C1=O`, the AC50 under setting [1] was 0.164 µM [rising, full curve, poor fit].

With `CN(C)NC(=S)NC(=O)C12CC3CC(CC(C3)C1)C2`, the AC50 is 2.82 µM [rising, full curve] under setting [1] and 6.31 µM [falling, full curve] under setting [2].

For the compound `Cc1ccc2nc(C3CCCCC3)[nH]c2c1`, the AC50 under setting [1] was 14.1 µM [falling, partial curve, poor fit].

Take `O=C(COC(=O)c1ccc(Cl)nc1)c1ccc2c(c1)OCCO2`: the AC50 under setting [1] is 2.82 µM [rising, partial curve, poor fit].

With `COc1ccc(N2CCN(C(=O)CSc3nnc(Cn4nnc5ccccc54)n3C)CC2)cc1`, the AC50 under setting [1] was 2.31 µM [rising, partial curve, poor fit].

On to `Nc1nc(NC(=O)c2ccco2)nn1-c1ccccc1`, for which the AC50 under setting [1] is 10 µM [falling, partial curve].

With `Cc1nc(-c2ccccc2)sc1-c1nc(-c2cccnc2)ncc1S(=O)(=O)c1ccccc1`, under setting [1], the AC50 was 5.62 µM [rising, partial curve, poor fit].

Turning to `O=C(/C=C/c1ccc(Cl)cc1)Nc1ccccc1N1CCOCC1`, the AC50 under setting [1] is 2.06 µM [falling, partial curve].

`CCOC(=O)c1sc(NC(=O)c2ccc(=O)[nH]c2)nc1C`: the half-maximal activity concentration (AC50) under setting [1] is 2.24 µM [falling, full curve].

Consider `O=Cc1ccc2noc(-c3ccc(Cl)cc3)c2c1`, for which, under setting [1], the AC50 was 6.51 µM [rising, partial curve, poor fit].

Take `Cc1cc(OCC(=O)N2CCc3ccccc3C2)c2c(-c3ccccc3)cc(=O)oc2c1`: the AC50 under setting [1] was 14.6 µM [falling, partial curve].

For the compound `CCCc1nn(C)c(C(=O)Nc2cccc(CC)c2)c1Cl`, the AC50 under setting [1] was 9.2 µM [rising, partial curve, poor fit].

Take `CCOC(=O)C1C(c2ccccc2)NC(=S)NC1(C)O` (centres undefined): the AC50 under setting [1] is 28.2 µM [falling, single point].

Regarding `O=C1Nc2cc(Cl)c(Cl)cc2N(O)N1c1ccc(Cl)c(Cl)c1`, the AC50 under setting [1] was 10 µM [falling, partial curve].

Regarding `COc1cccc(Nc2nc(-c3sc(C)nc3C)cs2)c1`, the half-maximal activity concentration (AC50) under setting [1] was 35.5 µM [falling, single point].

For `Cc1ccc(SCC(=O)c2ccc(CC(=O)O)s2)cc1`, the AC50 under setting [1] was 20 µM [falling, partial curve].

In the case of `Cc1ccccc1NC(=S)NNC(=O)c1csc2c1CCC(C)C2` (centres undefined), the AC50 under setting [1] is 1.03 µM [falling, full curve].

Turning to `O=C(Nc1ccc(C(=O)O)cc1)Nc1cccc2ccccc12`, under setting [1], the concentration at half-maximal activity (AC50) is 8.91 µM [falling, partial curve, poor fit].

For the compound `O=C1CSCC(=O)N1c1ccccc1`, the AC50 under setting [1] is 29.1 µM [rising, single point] and the AC50 under setting [2] was 23.1 µM [falling, partial curve, poor fit].
